Data on one substance can be found in paper PMC12852734, “Design of precision therapeutics for a CKD risk allele by targeting Shroom3-Rock interaction” (Nature Communications, 2025).

Amino acid sequences for entries named in this document (tags omitted). A change or cut given only in a name is not applied to a line headed by its entry.
UniProt Q8TF72: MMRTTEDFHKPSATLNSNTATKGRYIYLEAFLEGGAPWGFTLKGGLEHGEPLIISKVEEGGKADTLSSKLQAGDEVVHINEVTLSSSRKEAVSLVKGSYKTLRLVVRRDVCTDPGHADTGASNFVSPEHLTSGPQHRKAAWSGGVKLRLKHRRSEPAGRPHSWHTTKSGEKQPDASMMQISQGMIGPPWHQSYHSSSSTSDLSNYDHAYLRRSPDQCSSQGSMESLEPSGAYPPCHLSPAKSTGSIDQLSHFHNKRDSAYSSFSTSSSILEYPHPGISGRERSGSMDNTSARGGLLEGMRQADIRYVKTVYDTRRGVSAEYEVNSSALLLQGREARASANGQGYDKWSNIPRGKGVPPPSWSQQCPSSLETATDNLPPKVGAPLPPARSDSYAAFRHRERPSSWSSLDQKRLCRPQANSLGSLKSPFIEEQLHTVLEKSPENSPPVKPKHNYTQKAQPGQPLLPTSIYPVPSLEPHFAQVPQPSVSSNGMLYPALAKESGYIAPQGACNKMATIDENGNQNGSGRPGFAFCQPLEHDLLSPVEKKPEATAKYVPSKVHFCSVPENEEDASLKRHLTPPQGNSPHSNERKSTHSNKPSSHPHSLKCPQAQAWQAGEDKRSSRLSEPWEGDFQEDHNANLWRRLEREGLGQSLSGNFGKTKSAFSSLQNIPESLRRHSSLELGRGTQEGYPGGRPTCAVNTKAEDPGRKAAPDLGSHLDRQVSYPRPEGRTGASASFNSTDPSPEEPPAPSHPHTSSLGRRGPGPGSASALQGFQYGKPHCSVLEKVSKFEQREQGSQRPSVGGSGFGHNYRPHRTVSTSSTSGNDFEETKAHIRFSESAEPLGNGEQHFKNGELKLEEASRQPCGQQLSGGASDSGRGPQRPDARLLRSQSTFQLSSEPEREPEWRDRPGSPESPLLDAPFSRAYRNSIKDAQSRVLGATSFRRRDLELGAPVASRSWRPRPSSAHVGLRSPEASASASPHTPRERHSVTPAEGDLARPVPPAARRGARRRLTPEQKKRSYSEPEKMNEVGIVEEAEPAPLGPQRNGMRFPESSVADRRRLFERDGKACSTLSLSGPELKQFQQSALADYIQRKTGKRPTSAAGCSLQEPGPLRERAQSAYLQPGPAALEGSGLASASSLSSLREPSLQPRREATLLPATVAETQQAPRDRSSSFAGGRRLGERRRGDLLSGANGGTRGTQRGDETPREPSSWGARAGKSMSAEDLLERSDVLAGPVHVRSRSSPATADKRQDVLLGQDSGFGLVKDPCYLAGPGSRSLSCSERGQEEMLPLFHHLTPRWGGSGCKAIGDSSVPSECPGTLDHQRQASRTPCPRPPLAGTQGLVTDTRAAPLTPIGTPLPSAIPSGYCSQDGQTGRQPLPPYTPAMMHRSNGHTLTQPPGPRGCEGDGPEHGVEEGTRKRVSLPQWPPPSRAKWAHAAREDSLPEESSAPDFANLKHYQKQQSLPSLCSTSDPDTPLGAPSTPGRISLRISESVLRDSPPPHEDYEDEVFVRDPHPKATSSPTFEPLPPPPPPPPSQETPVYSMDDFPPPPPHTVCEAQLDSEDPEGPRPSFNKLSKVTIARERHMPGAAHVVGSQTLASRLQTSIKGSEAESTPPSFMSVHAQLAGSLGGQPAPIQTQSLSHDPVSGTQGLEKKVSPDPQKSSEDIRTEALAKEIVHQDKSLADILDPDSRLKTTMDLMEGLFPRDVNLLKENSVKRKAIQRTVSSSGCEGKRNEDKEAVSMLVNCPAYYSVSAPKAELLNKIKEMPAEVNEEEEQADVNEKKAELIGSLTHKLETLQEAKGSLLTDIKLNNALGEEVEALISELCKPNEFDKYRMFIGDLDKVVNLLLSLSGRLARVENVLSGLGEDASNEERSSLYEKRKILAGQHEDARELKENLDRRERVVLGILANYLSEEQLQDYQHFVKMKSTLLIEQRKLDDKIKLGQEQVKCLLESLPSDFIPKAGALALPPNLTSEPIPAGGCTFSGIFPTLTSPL
UniProt O75116: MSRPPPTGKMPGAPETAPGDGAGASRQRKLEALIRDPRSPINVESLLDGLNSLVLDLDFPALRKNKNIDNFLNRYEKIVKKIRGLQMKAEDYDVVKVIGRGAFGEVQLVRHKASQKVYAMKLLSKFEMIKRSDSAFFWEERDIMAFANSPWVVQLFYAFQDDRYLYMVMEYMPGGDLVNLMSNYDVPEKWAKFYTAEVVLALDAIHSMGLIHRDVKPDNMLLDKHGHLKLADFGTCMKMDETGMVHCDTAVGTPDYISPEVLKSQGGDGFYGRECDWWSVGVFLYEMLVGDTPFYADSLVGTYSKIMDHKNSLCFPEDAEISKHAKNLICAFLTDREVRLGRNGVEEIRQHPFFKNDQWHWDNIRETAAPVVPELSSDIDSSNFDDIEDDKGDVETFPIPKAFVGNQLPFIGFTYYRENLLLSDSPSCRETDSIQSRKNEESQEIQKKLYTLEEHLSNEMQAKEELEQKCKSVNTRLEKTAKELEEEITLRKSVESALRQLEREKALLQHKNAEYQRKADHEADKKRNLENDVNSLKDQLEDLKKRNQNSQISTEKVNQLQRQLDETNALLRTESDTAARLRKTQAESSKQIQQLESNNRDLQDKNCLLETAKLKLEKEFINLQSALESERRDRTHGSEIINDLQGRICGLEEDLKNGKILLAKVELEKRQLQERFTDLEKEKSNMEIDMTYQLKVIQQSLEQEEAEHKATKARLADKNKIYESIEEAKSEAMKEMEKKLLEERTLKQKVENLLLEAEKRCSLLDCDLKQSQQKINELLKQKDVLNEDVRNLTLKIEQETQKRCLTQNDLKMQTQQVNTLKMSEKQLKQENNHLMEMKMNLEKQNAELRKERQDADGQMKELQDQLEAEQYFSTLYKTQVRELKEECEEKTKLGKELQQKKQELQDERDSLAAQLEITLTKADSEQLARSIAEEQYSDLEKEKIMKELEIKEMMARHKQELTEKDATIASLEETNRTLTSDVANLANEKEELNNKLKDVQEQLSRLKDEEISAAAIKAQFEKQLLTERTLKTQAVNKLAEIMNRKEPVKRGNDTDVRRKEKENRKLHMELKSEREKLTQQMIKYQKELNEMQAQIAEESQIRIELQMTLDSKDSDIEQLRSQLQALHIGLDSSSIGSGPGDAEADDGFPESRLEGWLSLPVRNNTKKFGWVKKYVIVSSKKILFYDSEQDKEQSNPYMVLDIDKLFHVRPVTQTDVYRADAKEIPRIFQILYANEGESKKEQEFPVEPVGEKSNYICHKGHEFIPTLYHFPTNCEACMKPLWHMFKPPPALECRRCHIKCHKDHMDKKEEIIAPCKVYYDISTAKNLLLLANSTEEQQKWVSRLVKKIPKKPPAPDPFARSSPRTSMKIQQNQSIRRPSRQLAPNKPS

These are yes or no findings as the source states them, for the method shown. Binding seen in cells or lysates may run through a third protein. For part of these data: A result given as binding can be weak or reduced; the word gives no strength.

Common to all, as to assay: co-IP; lysates of HEK-293T cells transfected with V5-tagged SHROOM3 constructs, collected 36 h after transfection, precipitated with anti-V5-tag mAb magnetic beads; blotted for SHROOM3, ROCK1, ROCK2, ACTB; in one set WT-Sh3 cells were treated with DMSO or D4G before lysis
Assay [1] concerns the target PDZΔ-Sh3 (human SHROOM3 with the PDZ domain deleted, V5-tagged) (human) (UniProt Q8TF72).
Assay [2] has as its target ASD2Δ-Sh3 (human SHROOM3 with the ASD2 domain deleted, V5-tagged) (human) (UniProt Q8TF72).
In assay [3] the target is ASD1Δ-Sh3 (human SHROOM3 with the ASD1 domain deleted, V5-tagged) (human) (UniProt Q8TF72).

Regarding “ROCK2 (Rho-associated coiled-coil kinase 2) (from UniProt O75116 1-1388) (enzyme)”, the binding entry is “binds” in assay [1], “no binding” in assay [2] and “binds” in assay [3].
